# Measured values published in patent US20170260169A1, “INHIBITORS FOR STEROID RESPONSE ELEMENTS AND RNA POLYMERASE II AND RELATED METHODS” (priority 2007, published 2017).
# Where two headings read alike, the source gives them in different places. For at least one compound, name, drawing or mass did not settle the structure. Some results were stated once for a whole list of compounds, not compound by compound.
# How the values were obtained:
# [1] = Liver microsomal stability, human; settings: human liver microsomes, with or without NADPH
# [2] = Liver microsomal stability, mouse; settings: mouse liver microsomes, with or without NADPH
# [3] = Multiple-dose subcutaneous injections, male C57BL/6J mice; type: in vivo; settings: 1 mg/kg SC every 3 days, three injections; listed as compound 78
# Procedure: In addition to single dose injections, the effects of repeated dosing of polyamides 77-80 in mice were examined. In this experiment, 8 week-old male C57BL/6J mice (n=3 per dosing group) were treated with 1 mg/kg of polyamides 77-80 by subcutaneous injection every 3 days, for a cycle of three injections and then sacrificed two days after the final injection (FIG. 31A). As in the single dosing experiments, two mice per group were subjected to histopathology analysis and all blood samples were sent for analysis. […] These mice were promptly euthanized.
# Serum from treated animals were collected by retroorbital bleeding. […] All samples were sent for analysis at IDEXX-RADIL.
# [4] = tested on: PSA mRNA expression in LNAR cells; test: PSA mRNA expression in LNAR cells (hormone refractory, over-express AR); type: cell-based
# [5] = tested on: PSA secretion by LNAR cells; test: PSA secretion in hormone refractory LNAR-CS cells; type: cell-based
# [6] = mouse, in vivo; cited from earlier work
smiles,measurement,setting,value
"CN(CCCNC(=O)c1cccc(C(=O)O)c1)CCCNC(=O)c1cc(NC(=O)c2cc(NC(=O)c3cc(NC(=O)c4nc(NC(=O)C[C@@H](N)CNC(=O)c5cc(NC(=O)c6cc(NC(=O)c7cc(NC(=O)c8nccn8C)cn7C)cn6C)cn5C)cn4C)cn3C)cn2C)cn1C [Polyamide 79, ImPyPyPy-3-(R)H^2Nγ-ImPyPyPy-NHMe-IPA]",intact after 1 hour incubation,[1],> 90%
same,intact after 1 hour incubation,[2],> 90%
"CC(=O)N[C@H](CCNC(=O)c1cc(NC(=O)c2cc(NC(=O)c3cc(NC(=O)c4nccn4C)cn3C)cn2C)cn1C)C(=O)Nc1cn(C)c(C(=O)Nc2cc(C(=O)Nc3cc(C(=O)Nc4cc(C(=O)NCCCN(C)CCCNC(=O)c5cccc(C(=O)O)c5)n(C)c4)n(C)c3)n(C)c2)n1 [Polyamide 78, ImPyPyPy-2-(R)^AcHNγ-ImPyPyPy-NHMe-IPA]",intact after 1 hour incubation,[1],> 90%
same,weight and physical morbidity,[3],minimal effect on animal weight
same,intact after 1 hour incubation,[2],> 90%
"CC(O)(CS(=O)(=O)c1ccc(F)cc1)C(=O)Nc1ccc(C#N)c(C(F)(F)F)c1 (centres unmarked) [bicalutamide, reference compound]",effect on DHT-induced PSA mRNA expression in LNAR cells,[4],loses all activity as an antagonist and displays weak agonist activity
same,effect on basal PSA mRNA expression (no DHT) in LNAR cells,[4],inducted
same,effect on DHT-induced PSA mRNA expression in LNAR cells,[4]; listed as Bicalutamide,does not inhibit PSA mRNA expression
same,effect on basal PSA mRNA expression (no DHT) in LNAR cells,[4]; listed as Bicalutamide,induces expression of PSA
same,effect on secretion of PSA,[5],fails to inhibit PSA secretion
"CC(=O)N[C@@H](CNC(=O)c1cc(NC(=O)c2cc(NC(=O)c3cc(NC(=O)c4nccn4C)cn3C)cn2C)cn1C)CC(=O)Nc1cn(C)c(C(=O)Nc2cc(C(=O)Nc3cc(C(=O)Nc4cc(C(=O)NCCCN(C)CCCNC(=O)c5cccc(C(=O)O)c5)n(C)c4)n(C)c3)n(C)c2)n1 [Polyamide 80, ImPyPyPy-3-(R)^AcHNγ-ImPyPyPy-NHMe-IPA]",time bioavailable in serum after intravenous injection,[6],more than 24 hours
